PubChem BioAssay AID504764 – Drosophila RNAi Screening Center, 2011
Assay: 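Genes whose knock-down alters Notch-dependent transcription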 (primary screen). System: Drosophila Kc167 cells. Reagents: long dsRNA against Drosophila genes. Duration: about 5 days (4 days dsRNA, then 24 h after transfection). Conditions: transfection of constitutively active membrane-tethered Notch lacking the extracellular domain, read 24 h later. Measured: 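Firefly luciferase from an E(spl)m3 reporter with active Notch, plus control-promoter and uninduced reporter wells for normalisation; unnormalised counts, duplicate wells a and b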. Scale: induced reporter light, run 1, well a and induced reporter light, run 1, well b: higher = more light from the Notch target reporter with active Notch; control promoter light, run 1, well a and control promoter light, run 1, well b: higher = more light from the viral control promoter (cell number, transfection, viability); uninduced reporter light, run 1, well a: higher = more light from the Notch target reporter without active Notch. Rule for the call: 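Hit if the duplicate-averaged log2 ratio of induced to control-promoter light gives a plate-wise z beyond ±2, or induced to uninduced beyond ±1.8; weak-control or discordant-duplicate wells dropped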. Meaning of the calls: active = modifier hit (raised or lowered Notch signal); inactive = not a hit.
The screen tested about 22,000 reagents; shown is an unselected part of those that have a named target and a result. In the full data, 403 (1.9%) were called active. 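Unnormalised raw counts per well; ratio z-scores behind the hit calls and whether each hit raises or lowers signal are not deposited.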 Unmarked entries are inactive. Not given: the amount of reagent.

Nprl2 (GeneID 32677) [DRSC20153] — induced reporter light, run 1, well a = 78355; induced reporter light, run 1, well b = 88255; control promoter light, run 1, well a = 72565; control promoter light, run 1, well b = 36785; uninduced reporter light, run 1, well a = 8255
Inx2 (GeneID 31646) [DRSC18783] — induced reporter light, run 1, well a = 1.84e5; induced reporter light, run 1, well b = 2.10e5; control promoter light, run 1, well a = 2.67e5; control promoter light, run 1, well b = 2.16e5; uninduced reporter light, run 1, well a = 15070
Pex13 (GeneID 36462) [DRSC06877] — induced reporter light, run 1, well a = 1.60e5; induced reporter light, run 1, well b = 1.60e5; control promoter light, run 1, well a = 1.22e5; control promoter light, run 1, well b = 1.54e5; uninduced reporter light, run 1, well a = 13225
CG33270 (GeneID 2768982) [DRSC10584] — induced reporter light, run 1, well a = 1.57e5; induced reporter light, run 1, well b = 1.17e5; control promoter light, run 1, well a = 1.25e5; control promoter light, run 1, well b = 1.64e5; uninduced reporter light, run 1, well a = 13160
CG34300 (GeneID 5740334) [DRSC13977] — induced reporter light, run 1, well a = 1.85e5; induced reporter light, run 1, well b = 1.75e5; control promoter light, run 1, well a = 2.00e5; control promoter light, run 1, well b = 1.88e5; uninduced reporter light, run 1, well a = 15230

A few values from the entries so far.
CG33270 (GeneID 2768982) [DRSC10584], induced reporter light, run 1, well b → 1.17e5
Result for Nprl2 (GeneID 32677) [DRSC20153] under “control promoter light, run 1, well b”: 36785

The list goes on.
CG14985 (GeneID 38470) [DRSC08078] — induced reporter light, run 1, well a = 1.96e5; induced reporter light, run 1, well b = 1.92e5; control promoter light, run 1, well a = 1.83e5; control promoter light, run 1, well b = 2.24e5; uninduced reporter light, run 1, well a = 12080
CG14985 (GeneID 38470) [DRSC08443] — induced reporter light, run 1, well a = 1.37e5; induced reporter light, run 1, well b = 1.22e5; control promoter light, run 1, well a = 1.64e5; control promoter light, run 1, well b = 1.47e5; uninduced reporter light, run 1, well a = 6820
CG11370 (GeneID 40486) [DRSC11653] — induced reporter light, run 1, well a = 1.22e5; induced reporter light, run 1, well b = 94600; control promoter light, run 1, well a = 1.12e5; control promoter light, run 1, well b = 76765; uninduced reporter light, run 1, well a = 5838
CG34115 (GeneID 4379880) [DRSC03840] — induced reporter light, run 1, well a = 81140; induced reporter light, run 1, well b = 72970; control promoter light, run 1, well a = 64635; control promoter light, run 1, well b = 70495; uninduced reporter light, run 1, well a = 7555
CG8180 (GeneID 36713) [DRSC07092] — induced reporter light, run 1, well a = 56085; induced reporter light, run 1, well b = 64185; control promoter light, run 1, well a = 85665; control promoter light, run 1, well b = 1.03e5; uninduced reporter light, run 1, well a = 5850
CG8180 (GeneID 36713) [DRSC07093] — induced reporter light, run 1, well a = 86060; induced reporter light, run 1, well b = 77625; control promoter light, run 1, well a = 54815; control promoter light, run 1, well b = 42670; uninduced reporter light, run 1, well a = 8155
shtd (GeneID 32473) [DRSC20166] — induced reporter light, run 1, well a = 1.60e5; induced reporter light, run 1, well b = 1.55e5; control promoter light, run 1, well a = 1.90e5; control promoter light, run 1, well b = 2.00e5; uninduced reporter light, run 1, well a = 11335
